# Test results as given in patent publication US20180256645A1.
# No constants are given. Whether binding was seen depends on the method and setting. Some binding calls cover weakened binding; strength is not graded here. Tags and fused reporters may be left off the sequences shown.
# T1: murine/mouse full length CXCR6 (chemokine receptor 6), expressed on transduced murine CD8+ T cells (murine/mouse) (UniProt Q9EQ16)
# T1 sequence: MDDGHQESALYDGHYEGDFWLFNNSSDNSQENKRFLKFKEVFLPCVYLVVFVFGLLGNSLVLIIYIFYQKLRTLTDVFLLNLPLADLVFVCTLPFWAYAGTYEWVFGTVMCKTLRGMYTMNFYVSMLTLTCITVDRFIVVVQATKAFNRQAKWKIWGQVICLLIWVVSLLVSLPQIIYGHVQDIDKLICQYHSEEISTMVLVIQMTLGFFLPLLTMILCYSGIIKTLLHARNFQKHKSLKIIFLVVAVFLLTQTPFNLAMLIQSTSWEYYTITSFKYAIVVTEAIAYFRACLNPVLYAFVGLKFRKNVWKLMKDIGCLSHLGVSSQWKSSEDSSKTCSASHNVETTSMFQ
# B1: His-tagged CXCL16 (Cat. Number 50142-M08H, SinoBiological, Peking, China) (ligand, UniProt Q8BSU2 27-201, looked up, not shown: small tags and cut ends)
# chain: NQGSVAGSCSCDRTISSGTQIPQGTLDHIRKYLKAFHRCPFFIRFQLQSKSVCGGSQDQWVRELVDCFERKECGTGHGKSFHHQKHLPQASTQTPEAAEGTPSDTSTPAHSQSTQHSTLPSGALSLNKEHTQPWEMTTLPSGYGLEARPEAEANEKQQDDRQQEAPGAGASTPAW
# Target: T1, murine/mouse full length CXCR6 (chemokine receptor 6), expressed on transduced murine CD8+ T cells (murine/mouse)
# Assay: cell adhesion assay: calcein-stained CXCR6-transduced CD8+ T cells on nickel plates coated with 9 pmol His-tagged CXCL16 or BSA, with or without anti-mouse CXCL16 neutralizing antibody; fluorescence of adherent cells
binder,measurement,value
B1,binding,binds
